In paper PMC3789756:
These are yes or no findings as the source states them, for the method shown. Binding seen in cells or lysates may run through a third protein. A yes stands for co-enrichment or nearness to the bait. Other partners may have been found.

Biological target: T1, murine Ifit1 (mouse (endogenous in MEFs)) (UniProt Q64282)
T1 sequence: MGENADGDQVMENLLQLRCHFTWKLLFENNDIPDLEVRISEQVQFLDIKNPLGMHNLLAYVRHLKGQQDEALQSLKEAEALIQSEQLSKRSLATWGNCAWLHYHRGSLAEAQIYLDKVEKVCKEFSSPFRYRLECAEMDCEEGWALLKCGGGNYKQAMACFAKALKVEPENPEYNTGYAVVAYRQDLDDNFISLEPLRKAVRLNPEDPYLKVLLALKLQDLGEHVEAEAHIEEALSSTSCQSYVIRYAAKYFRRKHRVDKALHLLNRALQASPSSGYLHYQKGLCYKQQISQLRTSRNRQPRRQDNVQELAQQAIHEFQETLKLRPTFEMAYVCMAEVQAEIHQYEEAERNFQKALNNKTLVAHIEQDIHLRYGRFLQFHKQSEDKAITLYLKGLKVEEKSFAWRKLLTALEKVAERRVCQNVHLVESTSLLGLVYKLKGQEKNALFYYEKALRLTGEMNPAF
Test: affinity purification with mass spectrometry; CAP-RNA against OH-RNA on beads, lysates of IFN-α-treated MEFs from wild-type (Ifit1+/+) and Ifit1-deficient (Ifit1-/-) mice; the bait is RNA

- binding: binds
Substance: murine Ifit1c (also known as Gm14446) (mouse (endogenous in MEFs))
